{"sequences": {"note": "Amino acid sequences for entries named in this document (tags omitted). A change or cut given only in a name is not applied to a line headed by its entry.", "UniProt Q9NQR4": "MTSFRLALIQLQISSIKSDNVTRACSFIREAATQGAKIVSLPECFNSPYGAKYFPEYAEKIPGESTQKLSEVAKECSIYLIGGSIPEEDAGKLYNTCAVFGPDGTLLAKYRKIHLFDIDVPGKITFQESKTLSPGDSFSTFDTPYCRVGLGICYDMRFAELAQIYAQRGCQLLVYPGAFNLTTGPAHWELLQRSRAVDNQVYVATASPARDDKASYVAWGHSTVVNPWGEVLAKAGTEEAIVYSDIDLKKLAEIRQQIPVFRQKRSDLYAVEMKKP", "UniProt Q96T66": "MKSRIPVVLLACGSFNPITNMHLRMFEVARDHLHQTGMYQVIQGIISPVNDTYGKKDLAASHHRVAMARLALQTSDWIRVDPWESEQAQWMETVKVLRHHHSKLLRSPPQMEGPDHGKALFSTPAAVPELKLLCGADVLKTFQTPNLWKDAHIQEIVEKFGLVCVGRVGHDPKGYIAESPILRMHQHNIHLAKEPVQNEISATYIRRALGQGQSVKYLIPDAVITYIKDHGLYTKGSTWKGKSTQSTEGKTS", "UniProt Q13287": "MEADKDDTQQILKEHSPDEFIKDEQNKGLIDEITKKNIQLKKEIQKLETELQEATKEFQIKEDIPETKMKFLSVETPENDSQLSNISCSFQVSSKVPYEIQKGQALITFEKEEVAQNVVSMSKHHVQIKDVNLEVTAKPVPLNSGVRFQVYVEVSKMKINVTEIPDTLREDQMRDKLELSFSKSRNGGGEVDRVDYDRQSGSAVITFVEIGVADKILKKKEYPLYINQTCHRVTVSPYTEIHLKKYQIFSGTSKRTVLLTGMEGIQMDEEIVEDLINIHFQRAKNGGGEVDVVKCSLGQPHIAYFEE", "UniProt Q92636": "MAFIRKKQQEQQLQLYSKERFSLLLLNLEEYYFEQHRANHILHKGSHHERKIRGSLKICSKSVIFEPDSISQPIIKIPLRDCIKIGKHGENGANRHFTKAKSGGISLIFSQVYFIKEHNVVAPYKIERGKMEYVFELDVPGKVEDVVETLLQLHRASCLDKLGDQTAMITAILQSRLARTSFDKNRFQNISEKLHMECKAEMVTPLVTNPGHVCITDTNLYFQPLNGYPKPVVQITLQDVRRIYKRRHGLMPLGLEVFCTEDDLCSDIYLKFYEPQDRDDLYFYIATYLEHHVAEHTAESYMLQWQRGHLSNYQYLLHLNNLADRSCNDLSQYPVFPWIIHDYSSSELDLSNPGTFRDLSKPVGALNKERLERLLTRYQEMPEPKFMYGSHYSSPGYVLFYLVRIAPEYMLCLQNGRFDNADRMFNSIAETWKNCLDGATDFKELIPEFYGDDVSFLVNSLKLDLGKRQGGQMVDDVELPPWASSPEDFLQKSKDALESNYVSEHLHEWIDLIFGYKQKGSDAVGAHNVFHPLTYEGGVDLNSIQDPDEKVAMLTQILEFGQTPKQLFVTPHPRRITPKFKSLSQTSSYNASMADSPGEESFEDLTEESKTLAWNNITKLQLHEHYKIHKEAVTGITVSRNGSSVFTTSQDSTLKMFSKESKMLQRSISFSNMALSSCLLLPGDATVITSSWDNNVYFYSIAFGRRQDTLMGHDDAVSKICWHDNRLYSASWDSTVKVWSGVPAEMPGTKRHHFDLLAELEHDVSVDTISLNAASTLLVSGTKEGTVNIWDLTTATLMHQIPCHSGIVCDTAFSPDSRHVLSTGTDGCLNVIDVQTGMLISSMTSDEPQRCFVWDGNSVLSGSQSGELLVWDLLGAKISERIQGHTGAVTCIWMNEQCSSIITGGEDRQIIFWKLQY", "UniProt O43847": "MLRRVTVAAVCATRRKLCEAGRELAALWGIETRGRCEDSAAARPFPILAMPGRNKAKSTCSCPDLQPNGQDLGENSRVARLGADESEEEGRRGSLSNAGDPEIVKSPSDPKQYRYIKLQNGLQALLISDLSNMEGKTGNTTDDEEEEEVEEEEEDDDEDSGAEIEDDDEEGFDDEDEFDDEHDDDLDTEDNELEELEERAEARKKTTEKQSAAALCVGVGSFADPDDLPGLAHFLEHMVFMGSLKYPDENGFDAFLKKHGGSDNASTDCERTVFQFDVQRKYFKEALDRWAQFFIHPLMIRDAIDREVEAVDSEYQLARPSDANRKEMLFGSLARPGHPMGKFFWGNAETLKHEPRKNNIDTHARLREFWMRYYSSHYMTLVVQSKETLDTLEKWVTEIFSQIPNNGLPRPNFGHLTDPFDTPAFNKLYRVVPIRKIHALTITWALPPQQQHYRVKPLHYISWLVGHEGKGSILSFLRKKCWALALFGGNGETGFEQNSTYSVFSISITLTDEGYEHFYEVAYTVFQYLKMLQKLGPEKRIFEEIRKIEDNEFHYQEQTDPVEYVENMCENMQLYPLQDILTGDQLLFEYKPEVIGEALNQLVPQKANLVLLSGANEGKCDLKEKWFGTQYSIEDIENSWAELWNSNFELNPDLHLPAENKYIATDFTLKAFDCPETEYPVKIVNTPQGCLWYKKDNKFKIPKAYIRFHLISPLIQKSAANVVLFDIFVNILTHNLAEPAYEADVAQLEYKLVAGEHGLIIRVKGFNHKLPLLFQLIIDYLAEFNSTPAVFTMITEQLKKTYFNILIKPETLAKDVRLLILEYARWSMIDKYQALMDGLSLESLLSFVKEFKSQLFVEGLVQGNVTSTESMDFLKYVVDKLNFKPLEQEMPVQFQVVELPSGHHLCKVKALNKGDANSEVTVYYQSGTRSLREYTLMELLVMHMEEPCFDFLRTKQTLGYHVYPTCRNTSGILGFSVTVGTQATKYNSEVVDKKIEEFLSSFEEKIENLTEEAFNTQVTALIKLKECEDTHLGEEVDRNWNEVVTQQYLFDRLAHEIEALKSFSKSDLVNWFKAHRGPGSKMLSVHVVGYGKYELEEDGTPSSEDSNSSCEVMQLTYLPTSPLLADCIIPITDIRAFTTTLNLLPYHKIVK", "UniProt Q5TFE4": "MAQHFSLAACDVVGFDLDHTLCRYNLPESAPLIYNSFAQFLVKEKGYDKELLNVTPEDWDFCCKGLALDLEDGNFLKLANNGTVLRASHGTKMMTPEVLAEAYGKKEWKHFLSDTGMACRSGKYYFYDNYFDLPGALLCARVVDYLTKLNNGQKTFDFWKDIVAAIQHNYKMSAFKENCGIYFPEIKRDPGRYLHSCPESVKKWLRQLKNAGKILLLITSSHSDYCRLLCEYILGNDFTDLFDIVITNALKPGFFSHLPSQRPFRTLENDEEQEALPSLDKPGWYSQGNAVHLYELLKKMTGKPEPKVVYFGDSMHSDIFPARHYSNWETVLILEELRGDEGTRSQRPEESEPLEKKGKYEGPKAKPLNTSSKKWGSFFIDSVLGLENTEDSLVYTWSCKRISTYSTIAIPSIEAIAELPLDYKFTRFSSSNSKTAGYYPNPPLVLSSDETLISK", "UniProt P13056": "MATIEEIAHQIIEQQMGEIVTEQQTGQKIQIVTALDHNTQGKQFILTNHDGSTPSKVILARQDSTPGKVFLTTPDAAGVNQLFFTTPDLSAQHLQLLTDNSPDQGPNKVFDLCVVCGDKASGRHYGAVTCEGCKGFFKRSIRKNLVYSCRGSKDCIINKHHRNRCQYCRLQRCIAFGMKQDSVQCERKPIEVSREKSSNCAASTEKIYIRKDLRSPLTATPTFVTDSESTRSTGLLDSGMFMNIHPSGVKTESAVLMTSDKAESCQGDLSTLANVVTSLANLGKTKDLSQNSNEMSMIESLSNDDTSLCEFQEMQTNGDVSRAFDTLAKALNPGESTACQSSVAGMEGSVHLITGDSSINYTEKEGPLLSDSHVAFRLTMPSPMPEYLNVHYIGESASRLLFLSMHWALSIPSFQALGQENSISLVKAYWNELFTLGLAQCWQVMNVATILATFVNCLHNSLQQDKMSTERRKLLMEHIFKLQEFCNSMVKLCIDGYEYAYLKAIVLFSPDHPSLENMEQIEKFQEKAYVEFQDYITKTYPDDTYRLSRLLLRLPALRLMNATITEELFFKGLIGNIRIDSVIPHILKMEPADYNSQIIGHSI", "UniProt Q9BYT8, whole entry, looked up": "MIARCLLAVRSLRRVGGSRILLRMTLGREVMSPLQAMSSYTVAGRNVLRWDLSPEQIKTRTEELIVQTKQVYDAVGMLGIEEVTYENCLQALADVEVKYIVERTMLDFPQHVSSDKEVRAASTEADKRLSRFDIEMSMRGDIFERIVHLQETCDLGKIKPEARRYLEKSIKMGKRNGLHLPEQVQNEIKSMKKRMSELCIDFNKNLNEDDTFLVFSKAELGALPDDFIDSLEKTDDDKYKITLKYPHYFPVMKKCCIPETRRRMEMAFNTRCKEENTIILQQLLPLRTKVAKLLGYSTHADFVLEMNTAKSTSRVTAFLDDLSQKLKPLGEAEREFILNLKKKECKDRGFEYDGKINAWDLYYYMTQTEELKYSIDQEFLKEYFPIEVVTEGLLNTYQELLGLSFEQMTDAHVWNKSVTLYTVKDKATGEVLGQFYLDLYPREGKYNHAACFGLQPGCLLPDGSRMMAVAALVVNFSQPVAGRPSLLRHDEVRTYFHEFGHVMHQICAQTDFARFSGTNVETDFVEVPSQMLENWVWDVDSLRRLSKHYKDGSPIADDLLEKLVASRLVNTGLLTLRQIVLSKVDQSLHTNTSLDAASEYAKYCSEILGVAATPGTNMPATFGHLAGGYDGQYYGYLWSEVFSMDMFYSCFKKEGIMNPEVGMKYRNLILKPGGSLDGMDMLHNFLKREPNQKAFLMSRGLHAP", "UniProt P30414": "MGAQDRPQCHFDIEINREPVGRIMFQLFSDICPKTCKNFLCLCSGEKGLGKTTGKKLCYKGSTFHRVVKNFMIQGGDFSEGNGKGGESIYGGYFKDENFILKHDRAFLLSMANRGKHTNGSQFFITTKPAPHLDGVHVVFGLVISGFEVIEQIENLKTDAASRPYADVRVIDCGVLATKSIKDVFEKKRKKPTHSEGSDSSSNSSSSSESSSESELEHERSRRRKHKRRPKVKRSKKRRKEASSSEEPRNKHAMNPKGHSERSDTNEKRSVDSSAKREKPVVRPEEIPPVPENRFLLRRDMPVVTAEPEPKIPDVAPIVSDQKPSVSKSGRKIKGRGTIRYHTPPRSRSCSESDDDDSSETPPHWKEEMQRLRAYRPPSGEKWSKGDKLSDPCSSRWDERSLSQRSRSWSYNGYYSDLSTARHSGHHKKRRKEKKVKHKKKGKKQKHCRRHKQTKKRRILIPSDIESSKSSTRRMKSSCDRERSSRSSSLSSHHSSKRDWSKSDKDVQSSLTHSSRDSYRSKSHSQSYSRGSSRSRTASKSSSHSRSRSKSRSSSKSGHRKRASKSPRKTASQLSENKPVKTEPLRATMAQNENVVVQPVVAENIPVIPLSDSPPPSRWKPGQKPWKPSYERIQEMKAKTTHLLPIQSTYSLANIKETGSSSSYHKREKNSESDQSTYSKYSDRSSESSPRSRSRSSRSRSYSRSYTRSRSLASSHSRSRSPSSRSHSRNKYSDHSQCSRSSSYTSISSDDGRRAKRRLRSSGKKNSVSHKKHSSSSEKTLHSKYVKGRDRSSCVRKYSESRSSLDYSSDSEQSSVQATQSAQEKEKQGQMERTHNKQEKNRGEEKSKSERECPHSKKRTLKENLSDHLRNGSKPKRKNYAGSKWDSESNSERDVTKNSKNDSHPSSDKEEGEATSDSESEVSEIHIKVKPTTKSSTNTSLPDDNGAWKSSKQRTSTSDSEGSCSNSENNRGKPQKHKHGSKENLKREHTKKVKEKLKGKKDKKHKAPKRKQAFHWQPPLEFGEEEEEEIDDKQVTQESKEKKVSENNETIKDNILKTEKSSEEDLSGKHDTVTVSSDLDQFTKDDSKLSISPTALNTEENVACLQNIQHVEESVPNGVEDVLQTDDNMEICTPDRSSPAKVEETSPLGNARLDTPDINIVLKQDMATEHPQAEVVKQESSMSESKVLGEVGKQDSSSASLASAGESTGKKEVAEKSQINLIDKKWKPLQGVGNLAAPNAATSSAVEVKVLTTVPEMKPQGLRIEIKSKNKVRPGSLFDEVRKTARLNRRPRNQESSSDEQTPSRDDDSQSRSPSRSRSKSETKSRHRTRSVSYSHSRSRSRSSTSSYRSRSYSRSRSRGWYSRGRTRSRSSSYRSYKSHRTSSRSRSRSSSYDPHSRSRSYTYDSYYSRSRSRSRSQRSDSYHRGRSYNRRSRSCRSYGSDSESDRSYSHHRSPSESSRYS", "UniProt Q9Y639": "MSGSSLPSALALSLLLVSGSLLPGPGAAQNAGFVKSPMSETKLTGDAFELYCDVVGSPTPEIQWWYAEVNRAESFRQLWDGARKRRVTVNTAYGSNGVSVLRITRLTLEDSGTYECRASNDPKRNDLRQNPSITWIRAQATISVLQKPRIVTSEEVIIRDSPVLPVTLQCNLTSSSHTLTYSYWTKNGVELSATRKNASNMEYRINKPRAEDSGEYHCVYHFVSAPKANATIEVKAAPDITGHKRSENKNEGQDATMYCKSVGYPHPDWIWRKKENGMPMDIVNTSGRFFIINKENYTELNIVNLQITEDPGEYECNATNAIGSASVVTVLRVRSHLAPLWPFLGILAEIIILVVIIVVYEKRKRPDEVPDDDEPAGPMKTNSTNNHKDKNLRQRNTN"}, "source": "the supplement of paper PMC12067093", "about": "“Discovery and optimisation of a covalent ligand for TRIM25 and its application to targeted protein ubiquitination” (Chemical Science, 2025)", "note": "The list shows a part of the results.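 Further: competitive chemoproteomic profiling in live THP-1 cells with an iodoacetamide desthiobiotin (IA-DTB) probe, comparing probe-labelled peptide intensities in compound-treated cells against DMSO-treated controls.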"}
{"compound": "CC1Cc2ccccc2N1C(=O)C1CCCN(C1)C(=O)CCl (mixture of isomers) [TRIM25 ligand 11 (diastereomer mixture)]", "assay": "probe-labelled cysteine peptide fold change vs DMSO (competition) (log2 fold change); higher = less target engagement (more negative = stronger competition)", "details": "10 µM; THP-1; incubation time: 4 h"}
{"target": "NOSIP_Q9Y314_185_TVTCPMSGKPLR (UniProt Q9Y314)", "probe-labelled cysteine peptide fold change": -0.216}
{"target": "NLE1_Q9NVX2_251_ILTGHTQSVTCLR (UniProt Q9NVX2)", "probe-labelled cysteine peptide fold change": 0.085}
{"target": "NIT2_Q9NQR4_76_ECSIYLIGGSIPEEDAGK (UniProt Q9NQR4)", "probe-labelled cysteine peptide fold change": 0.174}
{"target": "NKRF_O15226_386_VFLQDHCLAEGYGTKK (UniProt O15226)", "probe-labelled cysteine peptide fold change": -0.274}
{"target": "NOTCH2_Q04721_427_GADCTEDVDECAMANSNPCEHAGK (UniProt Q04721)", "probe-labelled cysteine peptide fold change": 0.107}
{"target": "NOP2_P46087_463_VLLDAPCSGTGVISK (UniProt P46087)", "probe-labelled cysteine peptide fold change": 0.0346}
{"target": "NMNAT3_Q96T66_12_IPVVLLACGSFNPITNMHLR (UniProt Q96T66)", "probe-labelled cysteine peptide fold change": 0.124}
{"target": "NSD3_Q9BZ95_1292_SACASTNEEK (UniProt Q9BZ95)", "probe-labelled cysteine peptide fold change": -0.0117}
{"target": "NLRX1_Q86UT6_767_LGLQLNSLGPEACK (UniProt Q86UT6)", "probe-labelled cysteine peptide fold change": 0.0211}
{"target": "NSUN2_Q08J23_271_ILCDVPCSGDGTMR (UniProt Q08J23)", "probe-labelled cysteine peptide fold change": 0.00478}
{"target": "NMI_Q13287_230_EYPLYINQTCHR (UniProt Q13287)", "probe-labelled cysteine peptide fold change": 0.0387}
{"target": "NOL11_Q9H8H0_368_HSQDPGTHVVSHFVNWETPQGCGLGFQNSEQSR (UniProt Q9H8H0)", "probe-labelled cysteine peptide fold change": 0.0119}
{"target": "NSMAF_Q92636_158_ASCLDK (UniProt Q92636)", "probe-labelled cysteine peptide fold change": 0.119}
{"target": "NOP58_Q9Y2X3_439_TYDPSGDSTLPTCSK (UniProt Q9Y2X3)", "probe-labelled cysteine peptide fold change": 0.142}
{"target": "NRDC_O43847_18_VTVAAVCATRRKLCEAGR (UniProt O43847)", "probe-labelled cysteine peptide fold change": -0.146}
{"target": "NONO_Q15233_208_CSEGSFLLTTFPRPVTVEPMDQLDDEEGLPEK (UniProt Q15233)", "probe-labelled cysteine peptide fold change": 0.0254}
{"target": "NRDC_O43847_690_IVNTPQGCLWYK (UniProt O43847)", "probe-labelled cysteine peptide fold change": 0.00502}
{"target": "NPEPL1_Q8NDH3_189_IVDTPCNEMNTDTFLEEINK (UniProt Q8NDH3)", "probe-labelled cysteine peptide fold change": -0.0982}
{"target": "NPC1_O15118_177_ALGLLCGK (UniProt O15118)", "probe-labelled cysteine peptide fold change": 0.114}
{"target": "NOP58_Q9Y2X3_139_EMAAMCLGLAHSLSR (UniProt Q9Y2X3)", "probe-labelled cysteine peptide fold change": -0.0315}
{"target": "NOP56_O00567_52_LVAFCPFASSQVALENANAVSEGVVHEDLR (UniProt O00567)", "probe-labelled cysteine peptide fold change": 0.279}
{"target": "NSF_P46459_11+21_CPTDELSLTNCAVVNEK (UniProt P46459)", "probe-labelled cysteine peptide fold change": 0.00668}
{"target": "NT5DC1_Q5TFE4_10+22_AQHFSLAACDVVGFDLDHTLCR (UniProt Q5TFE4)", "probe-labelled cysteine peptide fold change": 0.0181}
{"target": "NR2C1_P13056_185_QDSVQCER (UniProt P13056)", "probe-labelled cysteine peptide fold change": 0.0182}
{"target": "NLN_Q9BYT8_451+458_YNHAACFGLQPGCLLPDGSR (UniProt Q9BYT8)", "probe-labelled cysteine peptide fold change": 0.154}
{"target": "NOC4L_Q9BVI4_99_YHSCCNR (UniProt Q9BVI4)", "probe-labelled cysteine peptide fold change": 0.22}
{"target": "NKIRAS2_Q9NYR9_10_VVVCGQASVGK (UniProt Q9NYR9)", "probe-labelled cysteine peptide fold change": 0.0468}
{"target": "NSUN2_Q08J23_758_AGEPNSPDAEEANSPDVTAGCDPAGVHPPR (UniProt Q08J23)", "probe-labelled cysteine peptide fold change": -0.154}
{"target": "NKTR_P30414_32_IMFQLFSDICPK (UniProt P30414)", "probe-labelled cysteine peptide fold change": -0.0454}
{"target": "NPLOC4_Q8TAT6_130_SRDPQLCR (UniProt Q8TAT6)", "probe-labelled cysteine peptide fold change": -0.0465}
{"target": "NOL11_Q9H8H0_578_ESTSCPVVQK (UniProt Q9H8H0)", "probe-labelled cysteine peptide fold change": -0.00732}
{"target": "NPTN_Q9Y639_259_NEGQDATMYCK (UniProt Q9Y639)", "probe-labelled cysteine peptide fold change": -0.0675}
{"target": "NOP14_P78316_457_CNHPSLAEGNK (UniProt P78316)", "probe-labelled cysteine peptide fold change": 0.352}
{"target": "NMNAT3_Q96T66_134_LLCGADVLK (UniProt Q96T66)", "probe-labelled cysteine peptide fold change": 0.0413}
{"target": "NSD3_Q9BZ95_173_ELFESSLCGDLLNEVQASEHTK (UniProt Q9BZ95)", "probe-labelled cysteine peptide fold change": 0.000136}
{"target": "NOC4L_Q9BVI4_509_KGPEPVPLEFIPAQGLLGRPGELCAQHFTLS (UniProt Q9BVI4)", "probe-labelled cysteine peptide fold change": 0.0196}
{"compound": "CC1Cc2ccccc2N1C(=O)C1CCCN(C1)C(=O)CCl (mixture of isomers) [TRIM25 ligand 11 (diastereomer mixture)]", "assay": "probe-labelled cysteine peptide fold change vs DMSO (competition) (log2 fold change); higher = less target engagement (more negative = stronger competition)", "details": "50 µM; THP-1; incubation time: 4 h"}
{"target": "NOSIP_Q9Y314_185_TVTCPMSGKPLR (UniProt Q9Y314)", "probe-labelled cysteine peptide fold change": -0.237}
{"target": "NLE1_Q9NVX2_251_ILTGHTQSVTCLR (UniProt Q9NVX2)", "probe-labelled cysteine peptide fold change": -0.00734}
{"target": "NIT2_Q9NQR4_76_ECSIYLIGGSIPEEDAGK (UniProt Q9NQR4)", "probe-labelled cysteine peptide fold change": 0.194}
{"target": "NKRF_O15226_386_VFLQDHCLAEGYGTKK (UniProt O15226)", "probe-labelled cysteine peptide fold change": -0.153}
{"target": "NOTCH2_Q04721_427_GADCTEDVDECAMANSNPCEHAGK (UniProt Q04721)", "probe-labelled cysteine peptide fold change": -0.0126}
{"target": "NOP2_P46087_463_VLLDAPCSGTGVISK (UniProt P46087)", "probe-labelled cysteine peptide fold change": -0.0126}
{"target": "NMNAT3_Q96T66_12_IPVVLLACGSFNPITNMHLR (UniProt Q96T66)", "probe-labelled cysteine peptide fold change": -0.224}
{"target": "NSD3_Q9BZ95_1292_SACASTNEEK (UniProt Q9BZ95)", "probe-labelled cysteine peptide fold change": -0.0332}
{"target": "NLRX1_Q86UT6_767_LGLQLNSLGPEACK (UniProt Q86UT6)", "probe-labelled cysteine peptide fold change": -0.0473}
{"target": "NSUN2_Q08J23_271_ILCDVPCSGDGTMR (UniProt Q08J23)", "probe-labelled cysteine peptide fold change": -0.00859}
{"target": "NMI_Q13287_230_EYPLYINQTCHR (UniProt Q13287)", "probe-labelled cysteine peptide fold change": -0.0395}
{"target": "NOL11_Q9H8H0_368_HSQDPGTHVVSHFVNWETPQGCGLGFQNSEQSR (UniProt Q9H8H0)", "probe-labelled cysteine peptide fold change": -0.152}
{"target": "NSMAF_Q92636_158_ASCLDK (UniProt Q92636)", "probe-labelled cysteine peptide fold change": 0.131}
{"target": "NOP58_Q9Y2X3_439_TYDPSGDSTLPTCSK (UniProt Q9Y2X3)", "probe-labelled cysteine peptide fold change": -0.0692}
{"target": "NRDC_O43847_18_VTVAAVCATRRKLCEAGR (UniProt O43847)", "probe-labelled cysteine peptide fold change": -0.193}
{"target": "NONO_Q15233_208_CSEGSFLLTTFPRPVTVEPMDQLDDEEGLPEK (UniProt Q15233)", "probe-labelled cysteine peptide fold change": -0.302}
{"target": "NRDC_O43847_690_IVNTPQGCLWYK (UniProt O43847)", "probe-labelled cysteine peptide fold change": 0.182}
{"target": "NPEPL1_Q8NDH3_189_IVDTPCNEMNTDTFLEEINK (UniProt Q8NDH3)", "probe-labelled cysteine peptide fold change": 0.0945}
{"target": "NPC1_O15118_177_ALGLLCGK (UniProt O15118)", "probe-labelled cysteine peptide fold change": -0.0232}
{"target": "NOP58_Q9Y2X3_139_EMAAMCLGLAHSLSR (UniProt Q9Y2X3)", "probe-labelled cysteine peptide fold change": -0.0217}
{"target": "NOP56_O00567_52_LVAFCPFASSQVALENANAVSEGVVHEDLR (UniProt O00567)", "probe-labelled cysteine peptide fold change": -0.116}
{"target": "NSF_P46459_11+21_CPTDELSLTNCAVVNEK (UniProt P46459)", "probe-labelled cysteine peptide fold change": -0.163}
{"target": "NT5DC1_Q5TFE4_10+22_AQHFSLAACDVVGFDLDHTLCR (UniProt Q5TFE4)", "probe-labelled cysteine peptide fold change": 0.119}
{"target": "NR2C1_P13056_185_QDSVQCER (UniProt P13056)", "probe-labelled cysteine peptide fold change": -0.0493}
{"target": "NLN_Q9BYT8_451+458_YNHAACFGLQPGCLLPDGSR (UniProt Q9BYT8)", "probe-labelled cysteine peptide fold change": -0.1}
{"target": "NOC4L_Q9BVI4_99_YHSCCNR (UniProt Q9BVI4)", "probe-labelled cysteine peptide fold change": 0.205}
{"target": "NKIRAS2_Q9NYR9_10_VVVCGQASVGK (UniProt Q9NYR9)", "probe-labelled cysteine peptide fold change": 0.0556}
{"target": "NSUN2_Q08J23_758_AGEPNSPDAEEANSPDVTAGCDPAGVHPPR (UniProt Q08J23)", "probe-labelled cysteine peptide fold change": -0.0972}
{"target": "NKTR_P30414_32_IMFQLFSDICPK (UniProt P30414)", "probe-labelled cysteine peptide fold change": -0.12}
{"target": "NPLOC4_Q8TAT6_130_SRDPQLCR (UniProt Q8TAT6)", "probe-labelled cysteine peptide fold change": -0.0731}
{"target": "NOL11_Q9H8H0_578_ESTSCPVVQK (UniProt Q9H8H0)", "probe-labelled cysteine peptide fold change": 0.00271}
{"target": "NPTN_Q9Y639_259_NEGQDATMYCK (UniProt Q9Y639)", "probe-labelled cysteine peptide fold change": -0.0536}
{"target": "NOP14_P78316_457_CNHPSLAEGNK (UniProt P78316)", "probe-labelled cysteine peptide fold change": -0.0471}
{"target": "NMNAT3_Q96T66_134_LLCGADVLK (UniProt Q96T66)", "probe-labelled cysteine peptide fold change": 0.0333}
{"target": "NSD3_Q9BZ95_173_ELFESSLCGDLLNEVQASEHTK (UniProt Q9BZ95)", "probe-labelled cysteine peptide fold change": -0.215}
{"target": "NOC4L_Q9BVI4_509_KGPEPVPLEFIPAQGLLGRPGELCAQHFTLS (UniProt Q9BVI4)", "probe-labelled cysteine peptide fold change": -0.199}
